Measured values published in article doi:10.1101/860833.
No constants are given. Whether binding was seen depends on the method and setting. In cells and extracts the contact can be indirect. Some entries that bind do so weakly or less than the wild type.

Target: HSPA14 (human) (UniProt Q0VDF9)
Test: co-IP

B1: HSPA14 (protein, UniProt Q0VDF9 1-509)
chain: MAAIGVHLGCTSACVAVYKDGRAGVVANDAGDRVTPAVVAYSENEEIVGLAAKQSRIRNISNTVMKVKQILGRSSSDPQAQKYIAESKCLVIEKNGKLRYEIDTGEETKFVNPEDVARLIFSKMKETAHSVLGSDANDVVITVPFDFGEKQKNALGEAARAAGFNVLRLIHEPSAALLAYGIGQDSPTGKSNILVFKLGGTSLSLSVMEVNSGIYRVLSTNTDDNIGGAHFTETLAQYLASEFQRSFKHDVRGNARAMMKLTNSAEVAKHSLSTLGSANCFLDSLYEGQDFDCNVSRARFELLCSPLFNKCIEAIRGLLDQNGFTADDINKVVLCGGSSRIPKLQQLIKDLFPAVELLNSIPPDEVIPIGAAIEAGILIGKENLLVEDSLMIECSARDILVKGVDESGASRFTVLFPSGTPLPARRQHTLQAPGSISSVCLELYESDGKNSAKEETKFAQVVLQDLDKKENGLRDILAVLTMKRDGSLHVTCTDQETGKCEAISIEIAS
  binding: binds
